Laboratory results: patent publication US20180002437A1 (ABRUZZO THERANOSTIC S R L, published 2018)
No constants are given. Whether binding was seen depends on the method and setting. Some entries that bind do so weakly or less than the wild type.

Amino acid sequences for entries named in this document (tags omitted). A change or cut given only in a name is not applied to a line headed by its entry.
UniProt P09758: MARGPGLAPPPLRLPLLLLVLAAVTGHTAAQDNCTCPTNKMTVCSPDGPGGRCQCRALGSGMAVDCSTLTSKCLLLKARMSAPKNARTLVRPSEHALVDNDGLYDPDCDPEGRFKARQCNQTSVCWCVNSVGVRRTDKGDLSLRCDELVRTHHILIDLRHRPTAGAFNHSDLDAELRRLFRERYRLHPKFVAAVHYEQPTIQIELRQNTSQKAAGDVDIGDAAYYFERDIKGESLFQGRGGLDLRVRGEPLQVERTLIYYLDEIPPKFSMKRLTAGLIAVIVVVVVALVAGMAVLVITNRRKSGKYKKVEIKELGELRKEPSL

Columns and labels:
[1] = target: recombinant human Trop-2-Fc fusion protein (rhTrop2; Cat. #650-T2-100, R&D Systems) (human) (UniProt P09758); assay: ELISA on rhTrop2, antibodies transient from HEK293
[2] = target: recombinant human Trop-2-Fc fusion protein (rhTrop2; Cat. #650-T2-100, R&D Systems) (human) (UniProt P09758); assay: competitive ELISA on rhTrop2, competitor of mouse 2G10
[3] = target: cynomolgus monkey (Macaca fascicularis) Trop-2 on COS-7 transfectants (cynomolgus monkey (Macaca fascicularis)); assay: flow cytometry, COS-7 stable transfectants
[4] = target: cynomolgus monkey (Macaca fascicularis) Trop-2 on COS-7 transfectants (cynomolgus monkey (Macaca fascicularis)); assay: flow cytometry, COS-7 transfectants, Hu2G10-5 labelled with Alexa-488
[5] = target: recombinant human Trop-2-Fc fusion protein (rhTrop2; Cat. #650-T2-100, R&D Systems) (human) (UniProt P09758); assay: ELISA, plate coated with 0.1 ug/ml rhTrop2, antibodies transient from HEK293
[6] = target: recombinant human Trop-2-Fc fusion protein (rhTrop2; Cat. #650-T2-100, R&D Systems) (human) (UniProt P09758); assay: ELISA, plate coated with 1 ug/ml rhTrop2
[7] = target: recombinant human Trop-2-Fc fusion protein (rhTrop2; Cat. #650-T2-100, R&D Systems) (human) (UniProt P09758); assay: competitive ELISA on rhTrop2, competitor of biotinylated mouse 2EF
[8] = target: recombinant human Trop-2-Fc fusion protein (rhTrop2; Cat. #650-T2-100, R&D Systems) (human) (UniProt P09758); assay: ELISA, plate coated with 0.1 ug/ml rhTrop-2, antibodies transient from HEK293
[9] = target: cynomolgus monkey (Macaca fascicularis) Trop-2 on COS-7 transfectants (cynomolgus monkey (Macaca fascicularis)); assay: flow cytometry, COS-7 transfectants, Hu2EF-7 labelled with Alexa-488
[10] = target: recombinant human Trop-2-Fc fusion protein (rhTrop2; Cat. #650-T2-100, R&D Systems) (human) (UniProt P09758); assay: ELISA, plate coated with 0.1 ug/ml rhTrop2, HEK293 culture supernatants

B1: humanized Hu2G10-1 antibody (Hu2G10 VH1 and VL1, IgG1/kappa) (antibody, V domains shown)
VH: QVQLVQSGAEVKKPGASVKVSCKASGFTFSSSYISWLRQAPGQRLEWIAWIYAGTGGTSYNQKFTGKATLTVDTSASTAYMELSSLRSEDTAVYYCARHNPRYYAMDYWGQGTTVTVSS
VL: DIQMTQSPSSLSASVGDRVTITCITSTDIDDDMNWYQQKPGKAPKLLISEGNTLRPGVPSRFSGSGYGTDFTFTISSLQPEDIATYYCLQSDNLPYTFGGGTKVEIK
**Q.** Which binding [1] does the source give for B1 here?
**A.** Its binding is “binds”.

B2: humanized Hu2G10-3 antibody (Hu2G10 VH2 and VL1, IgG1/kappa) (antibody, V domains shown)
VH: QVQLVQSGAEVKKPGASVKVSCKASGFTFSSSYISWLRQAPGQRLEWIAWIYAGTGGTSYNQKFTGRVTLTVDTSASTAYMELSSLRSEDTAVYYCARHNPRYYAMDYWGQGTTVTVSS
VL: DIQMTQSPSSLSASVGDRVTITCITSTDIDDDMNWYQQKPGKAPKLLISEGNTLRPGVPSRFSGSGYGTDFTFTISSLQPEDIATYYCLQSDNLPYTFGGGTKVEIK
**Q.** For B2, which binding [1] is on record?
**A.** Its binding is “binds”.

B3: humanized Hu2G10-6 antibody (Hu2G10 VH2 and VL3, IgG1/kappa) (antibody, V domains shown)
VH: QVQLVQSGAEVKKPGASVKVSCKASGFTFSSSYISWLRQAPGQRLEWIAWIYAGTGGTSYNQKFTGRVTLTVDTSASTAYMELSSLRSEDTAVYYCARHNPRYYAMDYWGQGTTVTVSS
VL: DTQMTQSPSSLSASVGDRVTITCITSTDIDDDMNWYQQKPGKAPKLLISEGNTLRPGVPSRFSGSGYGTDFTFTISSLQPEDIATYYCLQSDNLPYTFGGGTKVEIKR
**Q.** With B3 as the binder, how does the binding [2] read?
**A.** Its binding is “binds”.

B4: humanized Hu2G10-5 antibody (Hu2G10 VH1 and VL3, IgG1/kappa) (antibody, V domains shown)
VH: QVQLVQSGAEVKKPGASVKVSCKASGFTFSSSYISWLRQAPGQRLEWIAWIYAGTGGTSYNQKFTGKATLTVDTSASTAYMELSSLRSEDTAVYYCARHNPRYYAMDYWGQGTTVTVSS
VL: DTQMTQSPSSLSASVGDRVTITCITSTDIDDDMNWYQQKPGKAPKLLISEGNTLRPGVPSRFSGSGYGTDFTFTISSLQPEDIATYYCLQSDNLPYTFGGGTKVEIKR
**Q.** Which results are given for B4?
**A.** binding [2]: binds; binding [3]: binds; binding [1]: binds; binding [4]: binds

B5: humanized Hu2EF-5 antibody (VH5-Hu2EF and VL1-Hu2EF, IgG1/kappa) (antibody, V domains shown)
VH: QVQLVQSGAEVKKPGASVKVSCKASGYTFTNYWIGWVRQAPGQGLEWIGDIYPGGGYTNYNEKFKGRATLTADTSTSTAYMELSSLRSEDTAVYYCARGTGGGDYWGQGTLVTVSS
VL: DIVMTQSPDSLAVSLGERATINCRASQSVSTSSYSYMHWYQQKPGQPPKLLIKYASNLESGVPDRFSGSGSGTDFTLTISSLQAEDVAVYYCQHSWEIPYTFGQGTKLEIK
notes: human IgG1/kappa constant regions
**Q.** How did the binding [5] turn out when B5 was run?
**A.** The binding was “binds”.

**Q.** And the binding [6]?
**A.** The binding was “binds”.

**Q.** What about the binding [7] of the same binder?
**A.** Its binding is “binds”.

B6: Hu2EF variant VH-R38K (Hu2EF VH4 with R38K = Hu2EF VH7) with unmodified Hu2EF VL1 (antibody, human IgG1, V domains shown)
VH: QVQLVQSGAEVKKPGASVKVSCKASGYTFTNYWIGWVKQAPGQGLEWIGDIYPGGGYTNYNEKFKGRATLTADTSASTAYMELSSLRSEDTAVYYCARGTGGGDYWGQGTLVTVSS
VL: DIVMTQSPDSLAVSLGERATINCRASQSVSTSSYSYMHWYQQKPGQPPKLLIKYASNLESGVPDRFSGSGSGTDFTLTISSLQAEDVAVYYCQHSWEIPYTFGQGTKLEIK
**Q.** Which binding [8] does the source give for B6 here?
**A.** Its binding is “binds”.

B7: humanized Hu2EF-7 antibody (Hu2EF VH7 and VL2, IgG1/kappa) (antibody, V domains shown)
VH: QVQLVQSGAEVKKPGASVKVSCKASGYTFTNYWIGWVKQAPGQGLEWIGDIYPGGGYTNYNEKFKGRATLTADTSASTAYMELSSLRSEDTAVYYCARGTGGGDYWGQGTLVTVSS
VL: DIVLTQSPDSLAVSLGERATINCRASQSVSTSSYSYMHWYQQKPGQPPKLLIKYASNLESGVPDRFSGSGSGTDFTLTISSLQAEDVAVYYCQHSWEIPYTFGGGTKLEIKR
**Q.** B7 was tested. Which binding [3] did it give?
**A.** The binding was “binds”.

**Q.** What about the binding [9] of the same binder?
**A.** Its binding is “binds”.

**Q.** And the binding [10]?
**A.** Its binding is “binds”.

B8: humanized Hu2EF-4 antibody (VH4-Hu2EF and VL1-Hu2EF, IgG1/kappa) (antibody, V domains shown)
VH: QVQLVQSGAEVKKPGASVKVSCKASGYTFTNYWIGWVRQAPGQGLEWIGDIYPGGGYTNYNEKFKGRATLTADTSASTAYMELSSLRSEDTAVYYCARGTGGGDYWGQGTLVTVSS
VL: DIVMTQSPDSLAVSLGERATINCRASQSVSTSSYSYMHWYQQKPGQPPKLLIKYASNLESGVPDRFSGSGSGTDFTLTISSLQAEDVAVYYCQHSWEIPYTFGQGTKLEIK
notes: as for B5
**Q.** B8 was tested. Which binding [6] did it give?
**A.** The binding was “binds”.

**Q.** And the binding [7]?
**A.** Its binding is “binds”.

B9: chimeric 2EF IgG1/kappa antibody (Ch2EF) (antibody, V domains shown)
VH: QVQLQQSGAELVRPGTSVKMSCKAAGYTFTNYWIGWVKQRPGHGLEWIGDIYPGGGYTNYNEKFKGKATLTADTSSSTAYMQLSSLTSEDSAIYYCARGTGGGDYWGQGTLVTVSA
VL: DIVLTQSPASLAVSLGQRATISCRASQSVSTSSYSYMHWYQQKPGQPPKLLIKYASNLESGVPARFSGSGSGTDFTLNIHPVEEEDTATYYCQHSWEIPYTFGGGTKLEIK
**Q.** B9 was tested. Which binding [5] did it give?
**A.** Its binding is “binds”.

**Q.** And the binding [10]?
**A.** The binding was “binds”.

B10: mouse 2EF antibody (hybridoma PD 08021) (antibody, V domains shown)
VH: QVQLQQSGAELVRPGTSVKMSCKAAGYTFTNYWIGWVKQRPGHGLEWIGDIYPGGGYTNYNEKFKGKATLTADTSSSTAYMQLSSLTSEDSAIYYCARGTGGGDYWGQGTLVTVSA
VL: DIVLTQSPASLAVSLGQRATISCRASQSVSTSSYSYMHWYQQKPGQPPKLLIKYASNLESGVPARFSGSGSGTDFTLNIHPVEEEDTATYYCQHSWEIPYTFGGGTKLEIK
notes: Mouse monoclonal purified from the hybridoma; also called murine 2EF
**Q.** With B10 as the binder, how does the binding [6] read?
**A.** The binding was “binds”.

B11: chimeric 2G10 IgG1/kappa antibody (Ch2G10) (antibody, V domains shown)
VH: QGQMQQSGAELVKPGASVKLSCKTSGFTFSSSYISWLKQKPRQSLEWIAWIYAGTGGTSYNQKFTGKAQLTVDTSSSTAYMQLSSLTSEDSAIYYCARHNPRYYAMDYWGQGTSVTVSS
VL: ETTVTQSPASLSMAIGEKVTIRCITSTDIDDDMNWYQQKPGEPPKLLISEGNTLRPGVPSRFSSSGYGTDFVFTIENMLSEDVADYYCLQSDNLPYTFGGGTKLEIKR
notes: also called Ch2G10-IgG1/k
**Q.** How did the binding [2] turn out when B11 was run?
**A.** Its binding is “binds”.

**Q.** What about the binding [1] of the same binder?
**A.** Its binding is “binds”.
